Experimental data: PubChem BioAssay AID1259308 (NCATS, 2017)
Test: 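Knock-downs that increase output of a recombinant reporter protein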 (primary screen). Cells: human HEK293 embryonic kidney cells stably expressing firefly luciferase (HEK-CMV-Luc2-Hygro). Reagent: single siRNA against human genes, 0.8 pmol siRNA per well. Timing: 72 h. Measured: 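Luciferase light (ONE-Glo) measured on one replicate plate set and viability (CellTiter-Glo) on the other, scaled to a negative control siRNA, with robust z-scores and luciferase per cell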. Direction: total luciferase, z-score and total luciferase, % of control: higher = more reporter protein produced; luciferase per cell, z-score: higher = more reporter output per viable cell; viable cells, % of control: higher = more viable cells. Hit rule: 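An siRNA counts as active if its total luciferase robust z-score exceeds 3; genes with two or more such siRNAs out of three were retested with fresh siRNAs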. Calls: active = raised luciferase; inactive = no rise.
Shown is a random part of about 59,000 reagents tested. Over the whole deposit, about 1,510 (2.6%) are marked active. 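Calls use total luciferase alone and ignore viability, so some active siRNAs may act by altering cell number.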 Reagents against one gene are numbered here. Reagent sequences are not shown.

"total luciferase, z-score","total luciferase, % of control","luciferase per cell, z-score","viable cells, % of control",outcome,gene,siRNA no.
0.852,98.8,0.899,87.2,inactive,SLC12A6,1
-1.28,56.5,-0.816,78.2,inactive,SLC12A6,2
1.76,117,0.831,105,inactive,SLC12A6,3
-0.401,73.9,-0.102,84.8,inactive,SNAPC3 (small nuclear RNA activating complex polypeptide 3),1
-0.266,76.6,-0.363,94.2,inactive,SNAPC3 (small nuclear RNA activating complex polypeptide 3),2
0.639,94.6,0.276,98.3,inactive,SNAPC3 (small nuclear RNA activating complex polypeptide 3),3
-1.27,56.6,-1.82,102,inactive,RFX8 (regulatory factor X8),1
-2.31,36,-2.45,76.8,inactive,RFX8 (regulatory factor X8),2
1.25,107,0.761,97.7,inactive,RFX8 (regulatory factor X8),3
0.365,89.1,-0.109,103,inactive,RFX8 (regulatory factor X8),4
-0.584,70.3,-0.355,86.2,inactive,RFX8 (regulatory factor X8),5
0.257,87,1.04,73.8,inactive,RFX8 (regulatory factor X8),6
0.971,101,0.0646,111,inactive,SWAP70 (switching B cell complex subunit SWAP70),1
1.55,113,0.974,97.4,inactive,SWAP70 (switching B cell complex subunit SWAP70),2
-0.352,74.9,0.684,69.9,inactive,SWAP70 (switching B cell complex subunit SWAP70),3
1.3,108,0.831,96.7,inactive,"ETS1 (ETS proto-oncogene 1, transcription factor)",1
2.06,123,1.22,99.4,inactive,"ETS1 (ETS proto-oncogene 1, transcription factor)",2
4.89,179,2.74,97.4,active,"ETS1 (ETS proto-oncogene 1, transcription factor)",3
0.32,88.3,0.762,80.7,inactive,DHDH (dihydrodiol dehydrogenase),1
-1.6,50.1,-2.06,96.3,inactive,DHDH (dihydrodiol dehydrogenase),2
0.787,97.5,1.09,81.7,inactive,DHDH (dihydrodiol dehydrogenase),3
-0.469,72.6,-0.695,97.4,inactive,ARRDC2 (arrestin domain containing 2),1
-0.66,68.8,-0.421,85.8,inactive,ARRDC2 (arrestin domain containing 2),2
0.0446,82.8,-0.199,97.5,inactive,ARRDC2 (arrestin domain containing 2),3
-0.8,66,-1.01,96.3,inactive,APIP (APAF1 interacting protein),1
-0.14,79.1,-0.409,98.5,inactive,APIP (APAF1 interacting protein),2
-1.22,57.6,-0.874,81.1,inactive,APIP (APAF1 interacting protein),3
-1.1,60,-0.4,74.5,inactive,P3H2 (prolyl 3-hydroxylase 2),1
0.112,84.1,-0.265,101,inactive,P3H2 (prolyl 3-hydroxylase 2),2
-0.159,78.7,-0.499,100,inactive,P3H2 (prolyl 3-hydroxylase 2),3
-0.351,74.9,-1.3,118,inactive,ADI1 (acireductone dioxygenase 1),1
3.84,158,2.24,98.1,active,ADI1 (acireductone dioxygenase 1),2
-0.376,74.4,0.071,81.6,inactive,ADI1 (acireductone dioxygenase 1),3
0.262,87.1,0.165,93.2,inactive,"TMPRSS11GP (transmembrane serine protease 11G, pseudogene)",1
1.11,104,0.7,96.7,inactive,"TMPRSS11GP (transmembrane serine protease 11G, pseudogene)",2
1.24,106,0.528,104,inactive,"TMPRSS11GP (transmembrane serine protease 11G, pseudogene)",3
-1.59,50.3,-1.87,91.9,inactive,SGCG (sarcoglycan gamma),1
1.47,111,1.61,81.3,inactive,SGCG (sarcoglycan gamma),2
-0.647,69,0.0476,76.2,inactive,SGCG (sarcoglycan gamma),3
-0.312,75.7,0.0673,83.1,inactive,S100A9 (S100 calcium binding protein A9),1
-0.474,72.5,-0.865,102,inactive,S100A9 (S100 calcium binding protein A9),2
0.443,90.7,1.17,74.5,inactive,S100A9 (S100 calcium binding protein A9),3
-1.37,54.7,-1.91,101,inactive,STAT3 (signal transducer and activator of transcription 3),1
-0.21,77.7,-0.25,92.7,inactive,STAT3 (signal transducer and activator of transcription 3),2
0.131,84.5,0.24,88.6,inactive,STAT3 (signal transducer and activator of transcription 3),3
-0.744,67.1,-0.855,93.9,inactive,GPR107 (G protein-coupled receptor 107),1
0.477,91.4,0.43,91.2,inactive,GPR107 (G protein-coupled receptor 107),2
-0.552,70.9,-0.926,101,inactive,GPR107 (G protein-coupled receptor 107),3
-1.29,56.2,-1.81,101,inactive,KATNAL2 (katanin catalytic subunit A1 like 2),1
-0.86,64.8,-1.57,109,inactive,KATNAL2 (katanin catalytic subunit A1 like 2),2
2.05,123,2.72,66.9,inactive,KATNAL2 (katanin catalytic subunit A1 like 2),3
-0.361,74.7,-0.548,96.4,inactive,"ARHGEF34P (Rho guanine nucleotide exchange factor 34, pseudogene)",1
-0.58,70.4,-1.33,112,inactive,"ARHGEF34P (Rho guanine nucleotide exchange factor 34, pseudogene)",2
1.33,108,1.89,73.7,inactive,"ARHGEF34P (Rho guanine nucleotide exchange factor 34, pseudogene)",3
0.771,97.2,0.888,86,inactive,PRB3 (proline rich protein BstNI subfamily 3),1
0.982,101,2.1,65.2,inactive,PRB3 (proline rich protein BstNI subfamily 3),2
1.46,111,0.486,109,inactive,PRB3 (proline rich protein BstNI subfamily 3),3

Already shown: 4 of the entries above.
"total luciferase, z-score","total luciferase, % of control","luciferase per cell, z-score","viable cells, % of control",outcome,gene,siRNA no.
-0.312,75.7,0.0673,83.1,inactive,S100A9 (S100 calcium binding protein A9),1
-0.474,72.5,-0.865,102,inactive,S100A9 (S100 calcium binding protein A9),2
0.443,90.7,1.17,74.5,inactive,S100A9 (S100 calcium binding protein A9),3
-1.37,54.7,-1.91,101,inactive,STAT3 (signal transducer and activator of transcription 3),1
